# Measured values as given in publication PMC5711494, “Sterol methyltransferase a target for anti-amoeba therapy: towards transition state analog and suicide substrate drug design” (Journal of Lipid Research, 2017).
# Tested on: Acanthamoeba castellanii trophozoites sterol biosynthesis
# Experiment: Sterol composition of treated Ac trophozoites (GC/MS)
# Format: cell-based
# Experimental: Amoeba and HEK cells were harvested at one or more points during growth in the presence and absence of steroidal inhibitor and azole at IC50 or MACs of the inhibitor or at 40 µM for HEK cells. Cell pellets were split with an internal standard of known amounts of 5α-cholestane added to one of the cell pellets for determination of sterol amounts in cells. Cells were saponified directly in aqueous methanolic potassium hydroxide at the reflux temperature for 1 h, which yielded total sterol (free plus sterol released from ester bonds). The resulting neutral lipids obtained by dilution with water and extraction with hexane (Fisher) were analyzed by GC/MS or HPLC-equipped with a diode array detector against cholesterol as a chromatographic reference. GC and HPLC retention times of sterols were compared with those obtained from authentic standards in our steroid collection ([18]–[22]). To determine the trophozoite sterol metabolome, GC/MS analysis of cell pellet nonsaponfiables was typically carried out using control cultures incubated in 5 ml medium in 25 ml T-flasks inoculated with 1 × 10^4 trophozoites/ml and cultured for 72 h. To generate significant cell pellets for sterol analysis of treated cells, trophozoites were cultured in 10 ml medium in 25 ml T-flasks inoculated with 1 × 10^5 cells/ml and grown for 48 h.
compound,measurement,setting,value
"CC(CCC=C1CC1)C1CC[C@@]2(C)C3=C(CCC12C)C1(C)CCC(O)C(C)(C)C1CC3 (some centres unmarked) [DHL, 26,27-dehydrolanosterol]",DHL and 26-methyl DHL in treated cells,"15 µM, 48 h harvest",1 % total sterol
same,inhibitor detected in treated cells by GC/MS,DHL treatment,~0.5 % total sterol
